Measured values published in publication PMC7382281, “Assembly and regulation of the chlorhexidine-specific efflux pump AceI” (Proceedings of the National Academy of Sciences of the …, 2020).
No constants are given. Whether binding was seen depends on the method and setting. Tags and fused reporters may be left off the sequences shown.

Sequences of proteins named here, by UniProt entry; tags and fusion partners are left off. A change or cut given only in a name is not applied to a line headed by its entry.
UniProt P0A7Z4: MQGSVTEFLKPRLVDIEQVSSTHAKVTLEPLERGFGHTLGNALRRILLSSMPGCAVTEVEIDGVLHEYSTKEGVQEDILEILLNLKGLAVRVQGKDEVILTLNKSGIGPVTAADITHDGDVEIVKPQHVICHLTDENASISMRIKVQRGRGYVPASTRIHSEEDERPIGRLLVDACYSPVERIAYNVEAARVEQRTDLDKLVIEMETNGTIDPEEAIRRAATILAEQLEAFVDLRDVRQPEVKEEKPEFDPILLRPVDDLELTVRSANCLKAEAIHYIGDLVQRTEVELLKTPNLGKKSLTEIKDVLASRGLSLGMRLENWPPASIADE

Target: E. coli RNA polymerase containing the σ^70 factor (α2ββ′ωσ^70) (E. coli) (UniProt P0A7Z4)
Test: native MS; both purified

B1: AceR^FL: full-length AceR (Acinetobacter chlorhexidine efflux protein regulator) with a Bril fusion at the N terminus (protein, UniProt P0DUU5 1-297)
chain: MNINQEQLLMFQAVMETGSFSAAARKLGKVPSAVSMSIANLEIDLNLTLFERKGREPTPTAEARVLYEKTAQLLIEMNQWKQHAHALSTGLEPNLTIVVVSELLHTNWTDYVCLLESRFPDLQINIVSAPQEDALQMLLDGSAQLALMFEREHLDNREQFVELKREALIPVISKTHPLASQEHVSYEQILGTRQIVVASRDETLKPELLFSKHYWRTDNHHSACLMILRNLGWGVLPQEMFKENPELNNKLKALDVFDFTPRFEYYVDLVWSRESELGAAARFLIDYIRNKRMQPAP
binding: no binding
